Taken from: PubChem BioAssay AID504764 (Drosophila RNAi Screening Center, 2011)
The deposit covers about 22,000 reagents; below is an unselected part of those that have a named target and a result. In the full data, 403 (1.9%) were called active. 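Unnormalised raw counts per well; ratio z-scores behind the hit calls and whether each hit raises or lowers signal are not deposited.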 Unmarked entries are inactive. Reagents against one gene are numbered here. Not stated in the record: the amount of reagent.

Aim: 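Genes whose knock-down alters Notch-dependent transcription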 (primary screen)
Cells: Drosophila Kc167 cells
Reagent: long dsRNA against Drosophila genes
Timing: about 5 days (4 days dsRNA, then 24 h after transfection)
Treatment: transfection of constitutively active membrane-tethered Notch lacking the extracellular domain, read 24 h later
Measured: 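Firefly luciferase from an E(spl)m3 reporter with active Notch, plus control-promoter and uninduced reporter wells for normalisation; unnormalised counts, duplicate wells a and b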
Scale: induced reporter light, run 1, well a and induced reporter light, run 1, well b: higher = more light from the Notch target reporter with active Notch; control promoter light, run 1, well a and control promoter light, run 1, well b: higher = more light from the viral control promoter (cell number, transfection, viability); uninduced reporter light, run 1, well a: higher = more light from the Notch target reporter without active Notch
Call rule: 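Wells with low control signal or poorly matching duplicates excluded; duplicates averaged; per source plate, z beyond ±2 for induced/control log2 ratio or beyond ±1.8 for induced/uninduced marks a hit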
Calls: active = modifier hit (raised or lowered Notch signal); inactive = not a hit

CG34348 (GeneID 32072) #1 | induced reporter light, run 1, well a: 1.38e5; induced reporter light, run 1, well b: 1.11e5; control promoter light, run 1, well a: 1.31e5; control promoter light, run 1, well b: 1.50e5; uninduced reporter light, run 1, well a: 7840
CG34348 (GeneID 32072) #2 | induced reporter light, run 1, well a: 91200; induced reporter light, run 1, well b: 97945; control promoter light, run 1, well a: 1.16e5; control promoter light, run 1, well b: 1.41e5; uninduced reporter light, run 1, well a: 8180
CG32374 (GeneID 38848) | induced reporter light, run 1, well a: 1.92e5; induced reporter light, run 1, well b: 1.46e5; control promoter light, run 1, well a: 1.68e5; control promoter light, run 1, well b: 1.26e5; uninduced reporter light, run 1, well a: 6245
CG8272 (GeneID 35875) | induced reporter light, run 1, well a: 64965; induced reporter light, run 1, well b: 55475; control promoter light, run 1, well a: 52715; control promoter light, run 1, well b: 47030; uninduced reporter light, run 1, well a: 5095
CG17211 (GeneID 34639) | induced reporter light, run 1, well a: 1.34e5; induced reporter light, run 1, well b: 1.33e5; control promoter light, run 1, well a: 1.31e5; control promoter light, run 1, well b: 1.48e5; uninduced reporter light, run 1, well a: 9820
dpr17 (GeneID 41470) #1 | induced reporter light, run 1, well a: 1.78e5; induced reporter light, run 1, well b: 2.14e5; control promoter light, run 1, well a: 2.68e5; control promoter light, run 1, well b: 2.62e5; uninduced reporter light, run 1, well a: 16515
dpr17 (GeneID 41470) #2 | induced reporter light, run 1, well a: 88765; induced reporter light, run 1, well b: 78805; control promoter light, run 1, well a: 89235; control promoter light, run 1, well b: 49950; uninduced reporter light, run 1, well a: 4015
dpr17 (GeneID 41470) #3 | induced reporter light, run 1, well a: 73770; induced reporter light, run 1, well b: 70365; control promoter light, run 1, well a: 51140; control promoter light, run 1, well b: 59000; uninduced reporter light, run 1, well a: 3530
CG43896 (GeneID 39360) | induced reporter light, run 1, well a: 1.59e5; induced reporter light, run 1, well b: 1.45e5; control promoter light, run 1, well a: 2.06e5; control promoter light, run 1, well b: 1.53e5; uninduced reporter light, run 1, well a: 9812
CG13060 (GeneID 39802) | induced reporter light, run 1, well a: 1.78e5; induced reporter light, run 1, well b: 1.42e5; control promoter light, run 1, well a: 2.01e5; control promoter light, run 1, well b: 2.29e5; uninduced reporter light, run 1, well a: 6605
T48 (GeneID 43235) | induced reporter light, run 1, well a: 1.46e5; induced reporter light, run 1, well b: 1.68e5; control promoter light, run 1, well a: 2.15e5; control promoter light, run 1, well b: 1.64e5; uninduced reporter light, run 1, well a: 13085
Vha55 (GeneID 41550) | induced reporter light, run 1, well a: 1.22e5; induced reporter light, run 1, well b: 1.22e5; control promoter light, run 1, well a: 1.02e5; control promoter light, run 1, well b: 80645; uninduced reporter light, run 1, well a: 7480
